Screen size: about 310,000 compounds; about 17,000 (5.5%) were called active. Inconclusive results, whose numbers are uncertain, are shown with a selection of clear calls. Calls come from the whole dose curve; as a rule, active = well fitted inhibition curve with a large enough effect; inconclusive = small, poorly fitted or top-dose-only effect, or effect the other way; inactive = no such curve, though single readings can be large or run the other way. Where the call is inconclusive, the potency comes from a doubtful curve fit.
Molecular target: Nuclear receptor ROR-gamma (Mus musculus) (UniProt P51450)
Assay: qHTS for inhibitors of ROR gamma transcriptional activity; note: nearly all actives have a fitted effect of over 60% in size
Conditions: Drosophila S2 Gal4-RORgamma UAS-luciferase reporter, 20 h; activity change, negative = inhibition: at 53.6 µM (top of the series)
Method in brief: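 Drosophila S2 cells stably expressing Gal4-DBD/mouse RORγ fusion under metallothionein promoter plus UAS-luciferase; compound 1 h, then 700 uM CuSO4 induction for 20 h at ambient temperature; inhibition read as reduced luminescence.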
% is set by controls: 0 for no effect and ±100 for the full control effect; potency is the fitted concentration of half-maximal effect.

Chains of the proteins cited; added tags and fusions are not shown. Lines headed by an entry give the natural chain unless they say otherwise; changes in a name come on top.
UniProt P51450: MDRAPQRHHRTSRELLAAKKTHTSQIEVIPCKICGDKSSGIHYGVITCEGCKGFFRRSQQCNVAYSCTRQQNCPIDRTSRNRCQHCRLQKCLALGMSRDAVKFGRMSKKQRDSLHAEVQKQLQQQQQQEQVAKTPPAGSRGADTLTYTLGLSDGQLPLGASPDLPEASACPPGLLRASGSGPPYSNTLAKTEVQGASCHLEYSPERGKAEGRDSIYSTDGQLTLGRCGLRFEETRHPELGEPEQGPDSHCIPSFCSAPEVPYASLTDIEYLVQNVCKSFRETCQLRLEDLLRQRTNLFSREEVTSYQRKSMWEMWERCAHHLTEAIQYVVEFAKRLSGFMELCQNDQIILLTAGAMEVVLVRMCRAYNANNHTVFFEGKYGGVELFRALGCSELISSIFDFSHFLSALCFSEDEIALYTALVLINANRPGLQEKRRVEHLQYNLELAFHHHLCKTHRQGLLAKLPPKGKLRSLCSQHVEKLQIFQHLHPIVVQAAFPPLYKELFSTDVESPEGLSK

Compound	Potency	activity change, negative = inhibition
Cc1noc(C)c1C(=O)N1CCC2(CCCN(C(c3ccccc3)c3ccccc3)C2)CC1	inconclusive: 11.2 µM [activator, partial curve, poor fit]	
Nc1ccc2nc(-c3ccccc3)sc2c1	active: 8.91 µM	
Cc1cc(CNC(=O)[C@H](C)[C@@H]2C[C@@]2(C)[C@@H](NC(=O)OCc2ccccc2)c2ccccc2)nn1C	inconclusive: 17.8 µM [activator, single point]	
O=C(CSc1ncc(-c2ccccc2)n1C1CCCC1)N1CCc2ccccc21	inconclusive: 17.8 µM [inhibitor, single point]	
CCOc1ccc(CCNC(=O)Cn2ncn3nc(-c4ccc(OC)cc4)cc3c2=O)cc1	inconclusive: 22.4 µM [inhibitor, single point]	
COc1cc(CN/C(C)=C(\C#N)C(N)=O)cc(OC)c1OC	inconclusive: 0.794 µM [inhibitor, full curve, poor fit]	
CSc1cccc(NS(=O)(=O)c2ccc3c(c2)CCN3C(C)=O)c1	inconclusive: 35.5 µM [inhibitor, single point]	
C=CCNC(=S)NNC(=O)c1ccc(OCCCC)cc1	active: 8.91 µM	
CNc1nc2sc3c(c2c(=O)n1C)CC(C)(C)SC3	inconclusive: 14.1 µM [activator, single point]	
CCc1ccc(C2=NN(C(=O)OC)C(O)(C(F)(F)F)C2)cc1 (centres undefined)	active: 11.2 µM	
CC(=O)Nc1sc(N/N=C/c2ccc(C)cc2)nc1-c1ccc(C)cc1	inconclusive: 12.6 µM [inhibitor, single point]	
N#Cc1nc(COc2ccc(F)cc2)oc1N1CCC(Cc2ccccc2)CC1	inconclusive: 0.398 µM [activator, single point]	
O=C(OCC(=O)c1ccc(Cl)cc1Cl)c1ccc2c(c1)C(=O)N(c1cccc3ncccc13)C2=O	inconclusive: 35.5 µM [activator, single point]	
COc1ccc(CC(=O)N/N=C(\C)c2ccccn2)cc1	active: 7.08 µM	
Cc1c(C(=O)N(C)C2CC(C)(C)NC(C)(C)C2)oc2c(F)cccc12	inconclusive: 11.2 µM [inhibitor, single point]	
O=C(c1ccccc1)c1cc(-c2ccccc2)on1	inconclusive: 12.6 µM [inhibitor, single point]	
O=C(CCN1CCN(c2ccccc2F)CC1)c1ccc(Br)cc1	inconclusive: 35.5 µM [inhibitor, single point]	
O=C(N/C(=C/c1cccc(Br)c1)c1nc(=S)[nH][nH]1)c1ccccc1	inactive	
CN(C)c1ccc(N=Cc2nc(-c3ccccc3)oc2OC(=O)c2cccc(Cl)c2)cc1	inconclusive: 11.2 µM [inhibitor, single point]	
C[C@H](NC(=O)[C@H]1N2C(=O)c3ccccc3C2SC1(C)C)C(=O)N1CCC[C@H]1C(=O)O (some centres undefined)	inactive	
COc1cc(OC)cc(C(=O)Nc2ccc(C(=O)NCC3CCCO3)cc2)c1 (centres undefined)	inconclusive: 35.5 µM [activator, partial curve, poor fit]	
Cc1ccc2c(c1)c1c(c(=O)n(-c3ccccc3)c(=O)n1CC(=O)NCC1CCCO1)n2C (centres undefined)	inactive	
CCOc1ccc(S(=O)(=O)N/N=C(\C)c2ccc3c(c2)OCO3)cc1	inconclusive: 12.6 µM [activator, partial curve]	

Given in markdown: part of the list above

| Compound | Potency | activity change, negative = inhibition |
| --- | --- | --- |
| Cc1cc(CNC(=O)[C@H](C)[C@@H]2C[C@@]2(C)[C@@H](NC(=O)OCc2ccccc2)c2ccccc2)nn1C | inconclusive: 17.8 µM [activator, single point] |  |
| O=C(CSc1ncc(-c2ccccc2)n1C1CCCC1)N1CCc2ccccc21 | inconclusive: 17.8 µM [inhibitor, single point] |  |
| CCOc1ccc(CCNC(=O)Cn2ncn3nc(-c4ccc(OC)cc4)cc3c2=O)cc1 | inconclusive: 22.4 µM [inhibitor, single point] |  |
| COc1cc(CN/C(C)=C(\C#N)C(N)=O)cc(OC)c1OC | inconclusive: 0.794 µM [inhibitor, full curve, poor fit] |  |
| CSc1cccc(NS(=O)(=O)c2ccc3c(c2)CCN3C(C)=O)c1 | inconclusive: 35.5 µM [inhibitor, single point] |  |
| C=CCNC(=S)NNC(=O)c1ccc(OCCCC)cc1 | active: 8.91 µM |  |
| CNc1nc2sc3c(c2c(=O)n1C)CC(C)(C)SC3 | inconclusive: 14.1 µM [activator, single point] |  |
| CCc1ccc(C2=NN(C(=O)OC)C(O)(C(F)(F)F)C2)cc1 (centres undefined) | active: 11.2 µM |  |
| CC(=O)Nc1sc(N/N=C/c2ccc(C)cc2)nc1-c1ccc(C)cc1 | inconclusive: 12.6 µM [inhibitor, single point] |  |
| N#Cc1nc(COc2ccc(F)cc2)oc1N1CCC(Cc2ccccc2)CC1 | inconclusive: 0.398 µM [activator, single point] |  |
| O=C(OCC(=O)c1ccc(Cl)cc1Cl)c1ccc2c(c1)C(=O)N(c1cccc3ncccc13)C2=O | inconclusive: 35.5 µM [activator, single point] |  |
| COc1ccc(CC(=O)N/N=C(\C)c2ccccn2)cc1 | active: 7.08 µM |  |
| Cc1c(C(=O)N(C)C2CC(C)(C)NC(C)(C)C2)oc2c(F)cccc12 | inconclusive: 11.2 µM [inhibitor, single point] |  |
| O=C(c1ccccc1)c1cc(-c2ccccc2)on1 | inconclusive: 12.6 µM [inhibitor, single point] |  |
| O=C(CCN1CCN(c2ccccc2F)CC1)c1ccc(Br)cc1 | inconclusive: 35.5 µM [inhibitor, single point] |  |
| O=C(N/C(=C/c1cccc(Br)c1)c1nc(=S)[nH][nH]1)c1ccccc1 | inactive |  |
| CN(C)c1ccc(N=Cc2nc(-c3ccccc3)oc2OC(=O)c2cccc(Cl)c2)cc1 | inconclusive: 11.2 µM [inhibitor, single point] |  |
| C[C@H](NC(=O)[C@H]1N2C(=O)c3ccccc3C2SC1(C)C)C(=O)N1CCC[C@H]1C(=O)O (some centres undefined) | inactive |  |
| COc1cc(OC)cc(C(=O)Nc2ccc(C(=O)NCC3CCCO3)cc2)c1 (centres undefined) | inconclusive: 35.5 µM [activator, partial curve, poor fit] |  |
| Cc1ccc2c(c1)c1c(c(=O)n(-c3ccccc3)c(=O)n1CC(=O)NCC1CCCO1)n2C (centres undefined) | inactive |  |

Next part:

Compound	Potency	activity change, negative = inhibition
CNc1nc(N)c(C(=O)C(C)(C)C)s1	inconclusive: 4.47 µM [activator, single point]	
CCC1=NN(C(=O)C(=O)NCCc2ccccc2)C(O)(C(F)(F)F)C1 (centres undefined)	active: 0.631 µM	
Cc1cccc(OCCC(=O)Nc2ccccc2C(N)=O)c1	inconclusive: 2 µM [activator, full curve]	
CCOc1ccc(N2C(=O)CC(NCCc3ccc(S(N)(=O)=O)cc3)C2=O)cc1 (centres undefined)		inactive: 1.2% [at 10 µM]
Cc1cccc(CSc2nnc(CCCCCNC(=O)OC(C)(C)C)o2)c1	inconclusive: 11.2 µM [activator, partial curve]	
O=C(CC1CCCC1)N1CCCC(Nc2cccc(F)c2)C1 (centres undefined)	inconclusive: 14.1 µM [activator, single point]	
O=C/C(=C\Nc1ccc(S(=O)(=O)CCO)cc1)c1nc2cc(Cl)ccc2o1	active: 8.91 µM	
Nn1c(Nc2ccccc2)nc2sc3c(c2c1=O)CCC3	inactive	
COc1ccc(Cl)cc1NC(=O)CNc1ccccc1F	inconclusive: 35.5 µM [activator, partial curve, poor fit]	
Cn1c(CN2CCCC2)nc2cc(NC(=O)COc3ccc([N+](=O)[O-])cc3)ccc21	inconclusive: 11.2 µM [activator, partial curve]	
CCc1ccc(NCc2nc3ccccc3c(=O)[nH]2)cc1	inconclusive: 3.16 µM [inhibitor, single point]	
O=[N+]([O-])c1cc(-c2ncccn2)c([N+](=O)[O-])s1	active: 3.98 µM	
Clc1cccc(CSc2nnc(-c3cccnc3)n2Cc2ccco2)c1	active: 15.8 µM	
O=C(COc1ccc(Br)cc1)N/N=C1/SCC(=O)N1Cc1ccccc1	inconclusive: 31.6 µM [activator, single point]	
COc1ccc(/C=N\n2nnc3ccccc32)cc1	inconclusive: 12.6 µM [inhibitor, single point]	
O=C(NCCc1ccc(C(F)(F)F)cc1)c1ccc(Cl)nc1	inconclusive: 35.5 µM [activator, single point]	
Cc1noc(C)c1COC(=O)CCCc1nc2ccccc2s1	inconclusive: 1.58 µM [inhibitor, partial curve, poor fit]	
Oc1c(C(c2ccccn2)N2CCOCC2)ccc2cccnc12 (centres undefined)	active: 1.26 µM	
Clc1ccc(-c2cn3ccccc3n2)cc1	inconclusive: 7.94 µM [inhibitor, partial curve, poor fit]	
C/C(=N\Nc1nc2ccc(Cl)cc2o1)c1ccccc1	active: 2.51 µM	
COc1ccc(Nc2nc3ccc(OC)cc3s2)cc1	inconclusive: 35.5 µM [inhibitor, single point]	
Cc1c(CCC(=O)NCCCC(=O)O)c(=O)oc2cc3oc4c(c3cc12)CCCC4	inconclusive: 1.12 µM [inhibitor, full curve]	
O=C(c1cnc2ccc3ccccc3c2c1)c1cc(F)ccc1O	inactive	

Compound	Potency	activity change, negative = inhibition
COc1ccc(NC(=S)NC2CCCCCC2)c(OC)c1	active: 3.16 µM	
Nc1cccc2c1C(=O)N(C(=O)/C=C/c1cccc(F)c1)C2=O	inconclusive: 20 µM [inhibitor, partial curve, poor fit]	
COc1cc(S(=O)(=O)N(Cc2ccccn2)Cc2ccco2)ccc1-n1cnnn1	inconclusive: 14.1 µM [activator, partial curve]	
COc1ccc(C(=O)C2CCCN(S(=O)(=O)c3ccccc3F)C2)c(C)c1 (centres undefined)	inconclusive: 20 µM [activator, single point]	
O=C(C1CCCN(S(=O)(=O)c2cccc3nonc23)C1)N1CCC(Cc2ccccc2)CC1 (centres undefined)	inconclusive: 10 µM [activator, partial curve]	
N=C(N)SCc1cn(-c2ccccc2)nc1-c1ccc(Br)cc1	active: 11.2 µM	
Fc1ccc(N2CCN(Cc3cn[nH]c3-c3ccccc3)CC2)cc1	inconclusive: 35.5 µM [activator, single point]	
Cc1noc(C)c1S(=O)(=O)N(CC(=O)NC(C)c1ccccc1)c1ccc(C(C)C)cc1 (centres undefined)	inconclusive: 10 µM [inhibitor, partial curve]	
CCOc1ccc(NC(=O)CSc2nnc(NC(=O)C3CC3)s2)cc1	inconclusive: 35.5 µM [inhibitor, single point]	
CCCCCc1cc(=O)oc2c(C(CCN3CCCCC3)c3ccc(OC)cc3)c(OC)cc(OC)c12 (centres undefined)	inconclusive: 35.5 µM [inhibitor, single point]	
COc1ccc(CCN(C)C2CC(=O)N(c3ccccc3)C2=O)cc1OC (centres undefined)	inconclusive: 0.891 µM [inhibitor, full curve, poor fit]	
COc1ccc(CCn2c(-c3ccc(F)cc3)nc3c(c(=O)c4ccccc4n3C)c2=O)cc1OC	inactive	
CCN(CC)C(=O)c1[nH]cnc1C(=O)N[C@@H](Cc1ccccc1)C(=O)OC(C)(C)C	active: 10 µM	
COc1ccccc1-n1cnnc1SCC(=O)Nc1ccccc1	inconclusive: 35.5 µM [activator, single point]	
COc1cccc(OC)c1C(=O)NC(=O)Nc1c(C)cccc1C	inactive	
O=C(CSc1ccc(Cl)cc1)N1CCN(c2ccc(Cl)cc2[N+](=O)[O-])CC1	inconclusive: 14.1 µM [activator, single point]	
CN1C(=O)N(C)c2cccc3cccc1c23	inactive	
COc1ccc(Cn2nnnc2CN(Cc2cc3cc(C)ccc3[nH]c2=O)C2CCCC2)cc1	inactive	
C=CCOC(=O)c1cc(-c2ccc(/C=C3\C(=O)NC(=O)C(C#N)=C3C)o2)ccc1Cl	inactive	
Cn1c(Cn2cnc3ccccc32)nnc1SCC(=O)CC(=O)Nc1ccccc1	inconclusive: 1.26 µM [inhibitor, single point]	
Cc1ccccc1OCC(O)CNC1CCC(NCC(O)COc2ccccc2C)CC1 (centres undefined)	inconclusive: 15.8 µM [inhibitor, single point]	
CC(C)Oc1cccc(C(=O)Nc2ccc(Br)cc2F)c1	inconclusive: 5.01 µM [inhibitor, partial curve]	
COc1ccc(C2=NN(c3nc4ccccc4s3)C(=O)/C2=C\N(C)C)cc1	inconclusive: 22.4 µM [inhibitor, single point]	

Reference: PubChem BioAssay AID2551 (National Center for Advancing Translational Sciences (NCATS), 2010)
